In patent US20200207836A1:
No constants are given. Whether binding was seen depends on the method and setting. Some entries that bind do so weakly or less than the wild type.

Sequences of proteins named here, by UniProt entry; tags and fusion partners are left off. A change or cut given only in a name is not applied to a line headed by its entry.
UniProt Q15109: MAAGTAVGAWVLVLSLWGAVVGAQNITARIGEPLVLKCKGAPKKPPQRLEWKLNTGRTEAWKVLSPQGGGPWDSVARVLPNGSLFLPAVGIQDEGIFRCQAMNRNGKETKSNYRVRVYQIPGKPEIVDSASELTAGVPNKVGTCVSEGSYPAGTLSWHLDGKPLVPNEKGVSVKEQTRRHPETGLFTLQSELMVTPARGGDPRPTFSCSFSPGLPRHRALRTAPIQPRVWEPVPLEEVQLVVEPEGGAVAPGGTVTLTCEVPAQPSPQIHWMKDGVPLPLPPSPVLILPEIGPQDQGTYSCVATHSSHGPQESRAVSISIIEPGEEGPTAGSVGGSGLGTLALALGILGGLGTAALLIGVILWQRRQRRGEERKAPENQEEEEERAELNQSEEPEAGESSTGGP

Biological target: AT1/Rluc8 (human)
Test: BRET saturation, HEK293FT cells

With “RAGE/Venus (from UniProt Q15109 23-404) (receptor)” the binding was “binds”.
